Results deposited as PubChem BioAssay AID1259425 (University of Nebraska Medical Center, 2018).
Shown is one part, drawn at random, of about 14,000 deposited reagents. Further read-outs or replicates are left out here. Not stated in the record: the time to read-out.

Purpose: 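Compare each knockdown with KSR1 silencing using changes in marker transcripts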 (primary screen)
System: HCT116 human colon cancer cells
Reagents: siRNA pool against human genes, 50 nM siRNA
Detection: 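After 50 nM siRNA pool, branched-DNA assay measures six marker transcripts per well, minus blank, normalised to the geometric mean of two housekeeping transcripts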
Direction: BNIP3L mRNA: higher = more BNIP3L transcript after knockdown; NDRG1 mRNA: higher = more NDRG1 transcript after knockdown

Silencing of COQ8B [SID364003130] came out at: BNIP3L mRNA, set 1 = 0.184; NDRG1 mRNA, set 1 = 0.0961. For IFNLR1 [SID364004800], the values are BNIP3L mRNA, set 1 = 0.0822; NDRG1 mRNA, set 1 = 0.219. After knock-down of TUBG1 [SID363992367], the screen gave BNIP3L mRNA, set 1 = 0.119; NDRG1 mRNA, set 1 = 0.178. RITA1 [SID364004224] showed BNIP3L mRNA, set 1 = 0.176; NDRG1 mRNA, set 1 = 0.332. PLEKHG6 [SID364000845] showed BNIP3L mRNA, set 1 = 0.0997; NDRG1 mRNA, set 1 = 0.504. RPS6KA4 [SID363994997] scored BNIP3L mRNA, set 1 = 0.121; NDRG1 mRNA, set 1 = 0.158.

With knock-down of CCK [SID363992026], the screen gave BNIP3L mRNA, set 1 = 0.115; NDRG1 mRNA, set 1 = 0.198. For NALF2 [SID363999647], the values are BNIP3L mRNA, set 1 = 0.126; NDRG1 mRNA, set 1 = 0.114. Silencing of PTH [SID363991647] gave: BNIP3L mRNA, set 1 = 0.213; NDRG1 mRNA, set 1 = 0.16. CHRNB4 [SID363992045] scored BNIP3L mRNA, set 1 = 0.0929; NDRG1 mRNA, set 1 = 0.234. After knock-down of QTRT1 [SID364003548], the record shows BNIP3L mRNA, set 1 = 0.0778; NDRG1 mRNA, set 1 = 0.204. Against RNF39 [SID364003336] the deposit lists BNIP3L mRNA, set 1 = 0.104; NDRG1 mRNA, set 1 = 0.225.

Laid out differently: 2 of the entries above
| gene | PubChem SID | BNIP3L mRNA, set 1 | NDRG1 mRNA, set 1 |
| --- | --- | --- | --- |
| RPS6KA4 | SID363994997 | 0.121 | 0.158 |
| CCK | SID363992026 | 0.115 | 0.198 |
